For 3 substances, binding results are on record in PMC5206633.

Amino acid sequences for entries named in this document (tags omitted). A change or cut given only in a name is not applied to a line headed by its entry.
UniProt P06748, whole entry: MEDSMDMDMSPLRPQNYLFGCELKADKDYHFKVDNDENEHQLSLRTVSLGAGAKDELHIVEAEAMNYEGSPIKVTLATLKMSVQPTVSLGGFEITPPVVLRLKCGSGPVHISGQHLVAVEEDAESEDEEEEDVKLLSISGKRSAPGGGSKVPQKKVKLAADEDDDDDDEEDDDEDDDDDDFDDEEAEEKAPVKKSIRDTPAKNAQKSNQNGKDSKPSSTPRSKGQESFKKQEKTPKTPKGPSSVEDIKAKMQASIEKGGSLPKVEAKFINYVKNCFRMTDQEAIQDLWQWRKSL

The target in test [1] is GST-NPM1 fusion protein (full length, 1–294) (not stated (the discussion speaks of 'NPM1 of Vero E6 cells')) (UniProt P06748). Description: pull-down; GST or GST-NPM1 on glutathione beads incubated with full-length and deletion mutants of GFP-tagged N protein; immunoblot against GFP; the source of the GFP proteins is not told (the methods tell of lysate of transfected HEK293T cells for Myc-N); only the target purified. On the technique in general: A western blot detects proteins with antibodies after separation by electrophoresis.

For test [2], the target named is 3×Flag-NPM1 (K263R) (not stated (the discussion speaks of 'NPM1 of Vero E6 cells')) (UniProt P06748). The experiment in a line: co-IP; HEK293T cells co-transfected, whole-cell lysates at 48 hpt in IP lysis buffer; immunoprecipitated with anti-Myc or anti-Flag mAb on protein A/G beads for 6–8 h; immunoblot.
The target of test [3] is 3×Flag-NPM1 (T199A) (not stated (the discussion speaks of 'NPM1 of Vero E6 cells')) (UniProt P06748). Described as above.
In test [4] the target is 3×Flag-NPM1 (K230R) (not stated (the discussion speaks of 'NPM1 of Vero E6 cells')) (UniProt P06748). Described as above.
The target of test [5] is 3×Flag-NPM1 (nucleophosmin) (not stated (the discussion speaks of 'NPM1 of Vero E6 cells')) (UniProt P06748). The description is as above.
Test [6] has as its target GST-NPM1 fusion protein (full length, 1–294) (not stated (the discussion speaks of 'NPM1 of Vero E6 cells')) (UniProt P06748). Description: pull-down; GST, GST-NPM1 or GST-NPM1 deletion mutants from E. coli on glutathione beads, blocked with 5% BSA; incubated 6 h at 4 °C in TIF buffer (20 mM Tris-HCl pH 8.0, 150 mM NaCl, 0.1% NP-40) with Myc-N from lysates of transfected HEK293T cells; immunoblot with anti-Myc; only the target purified.

No constants are given. Whether binding was seen depends on the method and setting. Binding seen in cells or lysates may run through a third protein. Some entries that bind do so weakly or less than the wild type.

Turning to “GFP-NR2 (aa 148–294 of PEDV N) (from UniProt Q07499 148-294) (domain or fragment)”, the binding result in test [1] is “binds”.
The same measure, in the same setting: to “GFP-tagged full-length PEDV N protein (from UniProt Q07499 1-441)” belongs “binds”.
On to “Myc-tagged PEDV nucleocapsid (N) protein (from UniProt Q07499 1-441)”, for which the binding result in test [2], in test [3], in test [4], in test [5] and in test [6] was “binds” each time.
